Results from PMC8876557.
No constants are given. Whether binding was seen depends on the method and setting. In cells and extracts the contact can be indirect. Some results given as binding are weak or reduced against the parent protein; the word gives no strength.

By UniProt entry, the sequences of proteins in these tests, tags left out.
UniProt P35226: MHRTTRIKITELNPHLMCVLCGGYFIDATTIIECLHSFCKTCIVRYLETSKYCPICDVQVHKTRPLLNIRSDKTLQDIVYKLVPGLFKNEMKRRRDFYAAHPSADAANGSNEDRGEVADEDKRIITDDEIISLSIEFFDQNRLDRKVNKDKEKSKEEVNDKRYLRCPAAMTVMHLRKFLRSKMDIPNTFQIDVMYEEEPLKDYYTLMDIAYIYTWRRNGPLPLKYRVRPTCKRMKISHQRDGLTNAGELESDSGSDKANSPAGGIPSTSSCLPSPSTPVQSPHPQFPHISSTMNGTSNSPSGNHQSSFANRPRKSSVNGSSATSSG

Compound: B lymphoma Mo-MLV insertion region 1 homolog (human (endogenous in SNUC4)) (UniProt P35226)
Assay: co-IP; SNUC4 cells (actively growing, 10% FBS) lysed in RIPA buffer with proteinase and phosphatase inhibitors; lysates precleared with magnetic protein G beads, incubated with 2 ug anti-BMI1 antibody overnight; IgG as negative control; ZNF277 and BMI1 detected by immunoblot

B1: Zinc finger protein 277 (protein, UniProt Q9NRM2 1-450)
chain: MAASKTQGAVARMQEDRDGSCSTVGGVGYGDSKDCILEPLSLPESPGGTTTLEGSPSVPCIFCEEHFPVAEQDKLLKHMIIEHKIVIADVKLVADFQRYILYWRKRFTEQPITDFCSVIRINSTAPFEEQENYFLLCDVLPEDRILREELQKQRLREILEQQQQERNDTNFHGVCMFCNEEFLGNRSVILNHMAREHAFNIGLPDNIVNCNEFLCTLQKKLDNLQCLYCEKTFRDKNTLKDHMRKKQHRKINPKNREYDRFYVINYLELGKSWEEVQLEDDRELLDHQEDDWSDWEEHPASAVCLFCEKQAETIEKLYVHMEDAHEFDLLKIKSELGLNFYQQVKLVNFIRRQVHQCRCYGCHVKFKSKADLRTHMEETKHTSLLPDRKTWDQLEYYFPTYENDTLLCTLSDSESDLTAQEQNENVPIISEDTSKLYALKQSSILNQLLL
B1 was tested, and the binding was “binds”.
